PubChem BioAssay AID652272, Drosophila RNAi Screening Center – 2013
The deposit covers about 21,000 reagents; below is an unselected part of those that have a named target and a result. Of all reagents, 503 (2.4%) got an active call. 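Raw plate light values, not normalised; calls rest on replicate z-scores that were not deposited; hits include reporter decreases as well as increases.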 Reagents against one gene are numbered here. Names joined by + are all predicted targets of the reagent. Not given: the amount of reagent, the time to read-out.

Aim: 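Genes whose knock-down decreases or increases Hedgehog reporter output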 (primary screen)
Cell system: Drosophila clone 8 (Cl8) cells
Knock-down reagent: long dsRNA against Drosophila genes
Read-out: 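Plate reader light from a firefly reporter under a ptc promoter fragment that responds to Hedgehog, with Renilla light as transfection reference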
Scale: firefly Hh reporter signal: higher = more ptc reporter light; Renilla reference signal: higher = more Renilla control light
Rule for the call: 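Hit when the z-score averaged over two replicates is under -2 or over +3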
Meaning of the calls: active = hit: reporter lowered or raised; inactive = not a hit

Gene,dsRNA no.,"firefly Hh reporter signal, replicate 1","firefly Hh reporter signal, replicate 2","firefly Hh reporter signal, replicate 3","Renilla reference signal, replicate 1","Renilla reference signal, replicate 2",Call
CG3246,1,1.01e5,80883,,2758,5617,inactive
CG3687,1,82164,47635,,2229,3306,inactive
CG3726,1,1.23e5,4.56e5,1.17e5,3018,22851,inactive
CG14777,1,1.04e5,3.01e5,,4076,10823,inactive
CG15533,1,61067,89314,,1254,2192,inactive
CG5246,1,78166,87757,,2225,5580,inactive
mxc,1,69911,1.50e5,,1401,5901,inactive
Megf8,1,1.20e5,99920,,4313,4016,inactive
CG10445,1,68077,87968,,2656,4323,inactive
mRpL30,1,72848,2.06e5,,2578,8454,inactive
phyl,1,91306,60696,,2437,4281,inactive
CG32815,1,1.44e5,3.10e5,,5666,10507,inactive
CG32815,2,1.12e5,2.29e5,,4401,8445,inactive
CG42490 (retired record),1,1.22e5,2.90e5,,3386,12576,inactive
sls,1,81691,71891,,4080,3388,inactive
sls,2,94153,35120,,4016,3552,inactive
sls,3,89413,43476,,1524,3015,active
Tm1,1,38992,1.85e5,,7241,4005,inactive
Tm1,2,39350,5.81e5,2.91e5,7048,5313,inactive
Tm1,3,97179,84208,,3750,3401,inactive
Ptp10D,1,53677,2.40e5,,1554,8854,inactive
Mst98Ca,1,1.17e5,1.32e5,,2272,3587,inactive
CG3857,1,1.94e5,1.28e5,,2861,2850,inactive
CG12355,1,4.90e5,1.03e5,,4752,4752,inactive
CG12355,2,81148,,,4215,2309,inactive

Continued, starting with the last 6 of the part before.
Gene,dsRNA no.,"firefly Hh reporter signal, replicate 1","firefly Hh reporter signal, replicate 2","firefly Hh reporter signal, replicate 3","Renilla reference signal, replicate 1","Renilla reference signal, replicate 2",Call
Tm1,3,97179,84208,,3750,3401,inactive
Ptp10D,1,53677,2.40e5,,1554,8854,inactive
Mst98Ca,1,1.17e5,1.32e5,,2272,3587,inactive
CG3857,1,1.94e5,1.28e5,,2861,2850,inactive
CG12355,1,4.90e5,1.03e5,,4752,4752,inactive
CG12355,2,81148,,,4215,2309,inactive
Atx-1,1,96876,2.93e5,,3575,9722,inactive
Sbat,1,5.24e5,1.81e5,,24545,7442,inactive
CG34316 + asRNA:CR43471,1,37252,2.23e5,,7613,4902,inactive
CG2063,1,84093,37440,,2812,4304,inactive
hook,1,50370,66352,,2528,3121,inactive
nAChRalpha7,1,1.16e5,2.43e5,,4652,10741,inactive
nAChRalpha7,2,1.09e5,1.70e5,,4077,7413,inactive
Jon99Fii + Jon99Cii + Jon99Ciii + 1 more,1,1.71e5,1.29e5,,5917,3779,inactive
eEF1alpha1,1,53945,41184,,1133,3091,inactive
CG15336,1,85824,1.78e5,,3018,6426,inactive
Hip14,1,1.48e5,66861,,6322,2856,inactive
CG31051,1,1.64e5,99179,,3418,2311,inactive
CG2790,1,1.12e5,83176,,3632,3268,inactive
CG33272,1,85866,1.42e5,,2579,8455,inactive
Unr,1,1.08e5,89837,,4353,2938,inactive
Srp54k,1,57206,44018,,4714,3509,inactive
MTPAP,1,91561,2.56e5,,2918,8948,inactive
CG3558,1,89065,72551,,4443,3513,inactive
Obp57c,1,89330,42235,,2283,1696,inactive
CG13021,1,79034,1.60e5,,877,5853,inactive
Rassf,1,95029,57680,,3473,2363,inactive
zen,1,72354,1.02e5,,2757,2726,inactive
CG32683,1,1.14e5,1.53e5,,3516,6648,inactive
CG32683,2,1.05e5,2.06e5,,3443,7997,inactive
CG32683,3,1.05e5,3.39e5,,3732,10821,inactive
Mov10,1,1.04e5,76875,,4576,3280,inactive
Ktch,1,93552,1.33e5,,3305,3729,inactive
CG6607,1,5.83e5,1.14e5,,31467,3762,inactive
SerT,1,90528,61536,,1776,5158,inactive
CG31259,1,64151,81207,,2325,2427,inactive
DIP-eta,1,1.02e5,69426,,2279,6827,inactive
CG14367,1,90148,1.02e5,,1813,2712,inactive
